According to paper PMC4357719, “Roles of Rad51 paralogs for promoting homologous recombination in Leishmania infantum”:
These are yes or no findings as the source states them, for the method shown. In cells and extracts the contact can be indirect. Binding calls can cover weak binding; strength is not graded here. For some of these results: Sequences can lack the tags named with a protein.

The chains behind the UniProt entries cited, without tags or fusion partners. Where a name states a change or a piece, a line headed by the entry shows the natural chain unless it says otherwise.
UniProt A4I499: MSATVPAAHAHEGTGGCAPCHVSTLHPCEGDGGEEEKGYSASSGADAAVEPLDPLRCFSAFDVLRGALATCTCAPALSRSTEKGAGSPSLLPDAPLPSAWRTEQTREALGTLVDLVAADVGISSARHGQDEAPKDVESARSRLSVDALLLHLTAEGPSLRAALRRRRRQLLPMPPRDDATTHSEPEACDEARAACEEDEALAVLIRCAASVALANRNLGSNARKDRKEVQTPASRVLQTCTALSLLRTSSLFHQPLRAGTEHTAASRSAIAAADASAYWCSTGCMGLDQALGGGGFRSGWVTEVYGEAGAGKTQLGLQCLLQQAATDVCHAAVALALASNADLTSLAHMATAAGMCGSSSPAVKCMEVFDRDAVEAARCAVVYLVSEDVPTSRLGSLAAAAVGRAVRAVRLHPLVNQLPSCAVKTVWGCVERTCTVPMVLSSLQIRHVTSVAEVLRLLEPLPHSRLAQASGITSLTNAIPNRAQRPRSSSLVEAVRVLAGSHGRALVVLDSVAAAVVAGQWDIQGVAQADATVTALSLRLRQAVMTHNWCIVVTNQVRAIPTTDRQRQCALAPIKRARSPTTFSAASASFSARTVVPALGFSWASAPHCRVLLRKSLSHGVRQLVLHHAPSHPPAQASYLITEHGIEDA
UniProt E9AHR7: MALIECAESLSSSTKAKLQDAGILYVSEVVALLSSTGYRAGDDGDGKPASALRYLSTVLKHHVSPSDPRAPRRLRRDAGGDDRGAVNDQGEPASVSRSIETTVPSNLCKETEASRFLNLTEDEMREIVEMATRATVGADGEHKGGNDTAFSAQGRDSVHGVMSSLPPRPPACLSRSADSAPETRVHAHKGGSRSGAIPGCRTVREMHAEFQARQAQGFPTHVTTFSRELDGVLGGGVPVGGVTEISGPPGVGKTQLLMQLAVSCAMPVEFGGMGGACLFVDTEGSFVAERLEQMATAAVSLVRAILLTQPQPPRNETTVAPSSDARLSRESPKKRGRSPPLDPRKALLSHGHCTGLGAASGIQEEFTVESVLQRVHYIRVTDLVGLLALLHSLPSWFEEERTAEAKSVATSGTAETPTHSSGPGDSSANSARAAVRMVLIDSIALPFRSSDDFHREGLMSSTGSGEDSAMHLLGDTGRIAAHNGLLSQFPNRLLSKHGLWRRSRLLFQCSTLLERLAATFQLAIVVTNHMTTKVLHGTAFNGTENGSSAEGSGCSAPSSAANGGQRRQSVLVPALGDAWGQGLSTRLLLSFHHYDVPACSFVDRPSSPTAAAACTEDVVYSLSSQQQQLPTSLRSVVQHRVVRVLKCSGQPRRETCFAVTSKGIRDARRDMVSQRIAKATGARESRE
UniProt A4HUT5: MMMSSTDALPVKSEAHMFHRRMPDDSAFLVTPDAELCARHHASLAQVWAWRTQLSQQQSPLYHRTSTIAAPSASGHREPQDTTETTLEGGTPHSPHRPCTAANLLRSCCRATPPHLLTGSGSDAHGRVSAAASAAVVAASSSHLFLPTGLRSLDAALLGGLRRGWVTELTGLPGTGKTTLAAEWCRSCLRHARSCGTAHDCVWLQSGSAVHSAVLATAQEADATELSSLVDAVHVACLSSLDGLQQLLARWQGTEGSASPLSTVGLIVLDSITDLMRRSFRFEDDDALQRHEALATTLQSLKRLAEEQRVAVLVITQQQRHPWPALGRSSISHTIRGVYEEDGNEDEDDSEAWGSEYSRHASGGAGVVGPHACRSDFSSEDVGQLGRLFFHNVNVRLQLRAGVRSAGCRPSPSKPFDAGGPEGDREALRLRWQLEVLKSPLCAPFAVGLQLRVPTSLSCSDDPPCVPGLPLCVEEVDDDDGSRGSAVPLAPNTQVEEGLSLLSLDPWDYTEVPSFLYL

How the values were obtained:
[1] = target: LiRad51-6-HA (Leishmania infantum) (UniProt A4I499); test: co-IP; anti-HA antibody on Sf9 cell extract containing LiRad51-3-Myc, LiRad51-6-HA and LiRad51-4-V5
[2] = target: T1, LiRad51-GST (Leishmania infantum) (UniProt A4I3C9); test: pull-down; LiRad51-GST co-infected for 48 h with LiRad51-3-Myc, LiRad51-4-V5 or LiRad51-6-HA in Sf9 cells; lysis in PBS buffer (300 mM NaCl, 1 mM EDTA, 1 mM DTT, 0.2% Triton); glutathione beads 1 h at 4°C; washes with 500 mM NaCl
T1 sequence: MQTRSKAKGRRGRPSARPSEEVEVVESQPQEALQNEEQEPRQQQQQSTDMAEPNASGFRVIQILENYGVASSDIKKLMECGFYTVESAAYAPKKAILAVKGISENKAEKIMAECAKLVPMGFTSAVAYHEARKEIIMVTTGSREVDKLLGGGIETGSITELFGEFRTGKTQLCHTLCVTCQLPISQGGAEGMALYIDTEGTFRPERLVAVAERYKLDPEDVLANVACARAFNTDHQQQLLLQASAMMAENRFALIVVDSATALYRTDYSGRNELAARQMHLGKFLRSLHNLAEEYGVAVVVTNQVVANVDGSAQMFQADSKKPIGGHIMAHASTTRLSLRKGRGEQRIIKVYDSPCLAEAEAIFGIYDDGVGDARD

[3] = target: LiRad51-3-GST (Leishmania infantum) (UniProt E9AHR7); test: pull-down; GST pull-down from Sf9 cells co-expressing LiRad51-3-GST, LiRad51-4-V5 and LiRad51-6-HA; the GST then cleaved

Substance	binding [1]	binding [2]	binding [3]
LiRad51-3-Myc (from UniProt E9AHR7)	binds	binds	
LiRad51-4-V5 (from UniProt A4HUT5)	binds	binds	binds
LiRad51-6-HA (from UniProt A4I499)		binds	binds
